# Library screening results

Sequences of proteins named here, by UniProt entry; tags and fusion partners are left off.
UniProt E9BF75, entry or part of it: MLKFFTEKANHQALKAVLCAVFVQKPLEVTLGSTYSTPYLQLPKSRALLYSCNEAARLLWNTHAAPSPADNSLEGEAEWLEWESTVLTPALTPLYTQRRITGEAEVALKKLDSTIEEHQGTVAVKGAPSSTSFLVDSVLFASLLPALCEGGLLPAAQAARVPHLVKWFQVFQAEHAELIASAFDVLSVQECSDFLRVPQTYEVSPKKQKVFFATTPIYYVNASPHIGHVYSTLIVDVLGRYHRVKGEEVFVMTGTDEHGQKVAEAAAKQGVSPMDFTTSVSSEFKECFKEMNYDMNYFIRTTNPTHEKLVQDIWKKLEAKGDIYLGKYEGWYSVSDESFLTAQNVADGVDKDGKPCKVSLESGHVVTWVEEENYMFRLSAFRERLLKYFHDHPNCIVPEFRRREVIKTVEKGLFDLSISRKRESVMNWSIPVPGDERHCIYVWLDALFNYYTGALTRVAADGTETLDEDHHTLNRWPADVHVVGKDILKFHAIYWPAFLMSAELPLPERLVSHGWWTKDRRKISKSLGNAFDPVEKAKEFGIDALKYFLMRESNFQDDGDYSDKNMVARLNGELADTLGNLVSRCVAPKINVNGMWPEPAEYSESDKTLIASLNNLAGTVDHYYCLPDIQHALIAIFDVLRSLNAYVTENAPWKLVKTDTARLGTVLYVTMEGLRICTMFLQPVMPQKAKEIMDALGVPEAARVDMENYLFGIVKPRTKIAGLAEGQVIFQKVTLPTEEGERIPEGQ

Results are percentages, as filed.
The controls that fix the scale are not given in the record; negative values are as filed.
This is an unselected part of the compounds tested.

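Primary screen of methionyl-tRNA synthetase; the read-out is not stated. Target: Methionyl-tRNA synthetase (putative), Leishmania donovani (UniProt E9BF75). The test concentration is not given. Values are per cent inhibition. Of about 68,000 compounds tested this way, about 24 (0.035%) reached 50% or more in at least one test.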

| # | compound | inhibition |
|---|---|---|
| 1 | `Cc1nc(CN(C)S(=O)(=O)c2ccccc2C(F)(F)F)no1` | 7.666 |
| 2 | `COc1c(C)cnc(CN2CCC(N(C)C(=O)C(C)OC)CC2)c1C` (configuration not stated) | 5.682 |
| 3 | `Cc1cc(-c2nn3c(C4CC4)nnc3s2)on1` | 1.355 |
| 4 | `N#Cc1cc(CSCCN2CCOCC2)ccc1F` | 10.99 |
| 5 | `COc1ncccc1NC(=O)N1CCC(C(=O)NC(C)C)CC1` | 3.846 |
| 6 | `O=c1[nH]c(N2CCN(C3CC3)CC2)nc2c1cnn2-c1ccccc1` | 13.1 |
| 7 | `CN(CC(=O)N1CCCC1Cn1cccn1)C1CC1` (configuration not stated) | 5.164 |
| 8 | `O=C(Nc1ccc(CCN2CCC(O)CC2)cc1)C1CCOCC1` | 9.206 |
| 9 | `CNC(=O)CN1CCC(NC(=O)C(C)Oc2ccccc2C#N)CC1` (configuration not stated) | 6.906 |
| 10 | `N#Cc1ccccc1C(=O)N1C[C@H]2CC[C@@H]1CN(Cc1ccccc1)C2` | 9.6 |
| 11 | `CCn1nnnc1-c1cccc(NCc2nc(C)ccc2O)c1` | 13.45 |
| 12 | `CN(Cc1cccc(F)c1)C(=O)CN1CCCC(Cn2cncn2)C1` (configuration not stated) | 10.56 |
| 13 | `O=C(CCS(=O)(=O)C1CCCC1)N1CCCC(n2ccnc2)C1` (configuration not stated) | 7.102 |
| 14 | `COc1ccc(N2CCN(C(=O)c3nc(Cl)sc3C(C)C)CC2)cc1` | 8.499 |
| 15 | `O=C(c1cscn1)N1CCN2C[C@H](OCc3cccnc3)C[C@H]2C1` | 1.045 |
| 16 | `COCC(C)NC(=O)NCCCc1cc(N)n(-c2ccccc2)n1` (configuration not stated) | 9.581 |
| 17 | `CN(C)CCN(Cc1cccc(C(F)(F)F)c1)C(=O)c1cc[nH]n1` | 9.735 |
| 18 | `Cn1cnc2c1CCN(CCCOc1ccc(C#N)cc1)C2` | -1.408 |
| 19 | `COc1cccc(CNC(=O)CC2CSc3nc(C)c(C)c(=O)n32)c1` (configuration not stated) | 13.52 |
| 20 | `CCCS(=O)(=O)NCC(C)c1ccc(F)c(F)c1` (configuration not stated) | 13.46 |
| 21 | `CN(Cc1cc[nH]n1)C(=O)C1CC(=O)N(Cc2ccncc2)C1` (configuration not stated) | 7.829 |
| 22 | `COc1ccc(CN2C[C@@H]3CN(Cc4ccoc4)C[C@@H]3C2=O)cc1` | 7.222 |
| 23 | `Cc1nn(C)c(C)c1C(=O)NC(C)CC(=O)c1cccs1` (configuration not stated) | 13.51 |
| 24 | `Cc1cc(N2CCC(NC(C)Cc3ccsc3)CC2)nc(N)n1` (configuration not stated) | 15.28 |
| 25 | `Cc1nc(COC[C@@H]2CC[C@H]3[C@H](CCN3S(C)(=O)=O)O2)cs1` | 15.15 |
| 26 | `Cn1cc(CN2CCc3ccc(=O)n(Cc4ccncc4)c3CC2)cn1` | 6.593 |
| 27 | `Cc1nc(CN2C[C@@H]3CN(c4ncccn4)C[C@@H]3C2=O)cs1` | 7.317 |
| 28 | `O=C(c1cnc(OCC(F)(F)F)c(Cl)c1)N1CCc2ccc(O)cc2C1` | 7.554 |
| 29 | `Cc1ccc(C(=O)N2CC[C@@]3(C[C@@H](NS(C)(=O)=O)CCO3)C2)s1` | 8.955 |
| 30 | `CNC(=O)c1ccc2c(OC)n(C)nc2c1` | 14.39 |
| 31 | `c1cnc(N2CCO[C@H]3CN(CC4CCOCC4)C[C@H]32)nc1` | 18.7 |
| 32 | `Cc1nn(C)c(Oc2ccccc2)c1CNC1CCCCNC1=O` (configuration not stated) | 14.73 |
| 33 | `O=C1CSC(c2ccncc2)c2c(n(C3CCOCC3)[nH]c2=O)N1` (configuration not stated) | 0.303 |
| 34 | `O=C(c1ccco1)N1CC[C@H]2[C@H]1CCN2S(=O)(=O)C1CC1` | 7.299 |
| 35 | `O=C(CO)N1CCOC2(CCCN(c3ncc(F)cn3)C2)C1` (configuration not stated) | 13.28 |
| 36 | `O=C(CN1CCOCC1)N(c1ccccc1)c1ccccc1` | 5.322 |
| 37 | `Cn1cc(S(=O)(=O)NC(CO)Cc2c[nH]c3ccccc23)cn1` (configuration not stated) | 17.38 |
| 38 | `CNC(=O)c1cnc(C)nc1CCNC(=O)CCc1ccccc1` | 4.787 |
| 39 | `N#CC1(NC(=O)COC(=O)Cn2cccn2)CCCC1` | 17.13 |
| 40 | `O=C(CCc1ccncc1)Nc1ccc(OCC2CCOCC2)cc1` | 17.42 |
| 41 | `Cc1nc(C)n(CC2CCCCN2Cc2nc(-c3ccco3)no2)n1` (configuration not stated) | 12.57 |
| 42 | `COc1c(CNCc2nnc3n2CCCCC3)c(C)nn1C` | 9.61 |
| 43 | `Cc1nccnc1CN1CCC2(CCCN(C3CCOCC3)C2=O)C1` (configuration not stated) | 10.5 |
| 44 | `CCCc1ccc(CN2CCN(C(=O)CC(C)C)[C@@H]3CS(=O)(=O)C[C@@H]32)o1` | 13.4 |
| 45 | `OCCNc1nc(Nc2ccccc2)c2nccnc2n1` | 1.609 |
| 46 | `COc1cccc(N2CCN(Cc3ccc4[nH]ccc4c3)CC2=O)c1` | 23.1 |
| 47 | `Cc1cc(NCc2cn(C)nc2-c2cccnc2)n(C)n1` | 17.54 |
| 48 | `Cc1n[nH]c(C)c1CCNC(=O)C1CCCN(CC(N)=O)C1` (configuration not stated) | 10.14 |
| 49 | `Cn1cc(-c2nnc3sc(C4CCC4)nn23)cn1` | 0.2618 |
| 50 | `CC(=O)c1c(F)cccc1N1CCC(NS(=O)(=O)c2ccccc2)CC1` | 11.35 |
| 51 | `CN1CCN(S(=O)(=O)C2CC2)Cc2cccnc21` | 14.08 |
| 52 | `COCC(=O)N[C@H](C)c1onc(-c2ccc(Cl)cc2)c1C(=O)O` | -3.729 |
| 53 | `Cc1ccc(N2CCC3(CCN(C(=O)N(C)C)CC3)CC2)nn1` | 10 |
| 54 | `Cc1cnn(C2CN(CC(=O)NCCc3c[nH]c4ccccc34)C2)c1` | 19.43 |
| 55 | `O=C(NC1CC1)[C@H]1C[C@H]2OCC[C@H]2N(Cc2cccnc2)C1` | 1.961 |
| 56 | `CC(C)Oc1cccc(C(O)CNC(=O)CCc2ccncc2)c1` (configuration not stated) | 13.5 |
| 57 | `Cn1cccc1C(=O)N1CCc2ncnc(C3CC3)c2CC1` | 5.226 |
| 58 | `NC(=O)CCOc1ccc(NC(=O)c2ccccc2OC(F)F)cc1` | 6.407 |
| 59 | `CC(C)N(CCCNC(=O)C1CCCN(C(N)=O)C1)S(C)(=O)=O` (configuration not stated) | 14.03 |
| 60 | `CS(=O)(=O)NCC(=O)NC1CCCN(c2ccccn2)C1` (configuration not stated) | 9.627 |
| 61 | `CCNC(=O)[C@@H]1CN(Cc2ccccc2)C[C@H]1C(=O)c1ccc(F)cc1` | 14.53 |
| 62 | `Cc1ccn(Cc2nc(C(C)OCC(C)C)no2)c(=O)c1` (configuration not stated) | 7.521 |
| 63 | `CC(C)n1c(C2CCCN(CCS(C)(=O)=O)C2)nc2ccccc21` (configuration not stated) | 11.43 |
| 64 | `O=C(NCC1(O)CCC1)NC(c1cc(F)ccc1F)C1CC1` (configuration not stated) | 22.85 |
| 65 | `c1cc2c(cc1C[C@@H]1CC[C@H](CN3CCCOCC3)O1)OCO2` | 13.9 |
| 66 | `COCCNc1nc(-n2nc(C)cc2C)nc2sc3c(c12)CCCC3` | 9.065 |
| 67 | `CN(C)C(CNC(=O)c1cccc(C(N)=O)c1)c1ccccc1Cl` (configuration not stated) | 3.226 |
| 68 | `CCS(=O)(=O)N1CCN(Cc2ccncc2)c2nc(C)ccc2C1` | 4.667 |
| 69 | `COC[C@]1(O)CCN(Cc2cnc(N3CCOCC3)nc2)CC1(C)C` | 16.86 |
| 70 | `COc1ncc(CN2CCOC(Cc3cccc4ccccc34)C2)cn1` (configuration not stated) | -17.77 |
| 71 | `O=C(CCn1ccc2ccccc21)N1CCC(Nc2cccnc2)CC1` | 22.57 |

For reference, 4 entries once more:

{"compound": "Cc1cnn(C2CN(CC(=O)NCCc3c[nH]c4ccccc34)C2)c1", "inhibition": 19.43}
{"compound": "c1cnc(N2CCO[C@H]3CN(CC4CCOCC4)C[C@H]32)nc1", "inhibition": 18.7}
{"compound": "Cc1nc(C)n(CC2CCCCN2Cc2nc(-c3ccco3)no2)n1", "stereo": "configuration not stated", "inhibition": 12.57}
{"compound": "N#Cc1cc(CSCCN2CCOCC2)ccc1F", "inhibition": 10.99}

Measurements from “University of Dundee, Small-Polar-MMV Screening Library” (2021), ChEMBL document CHEMBL3988442.